Results taken from the supplement of paper PMC12067093, “Discovery and optimisation of a covalent ligand for TRIM25 and its application to targeted protein ubiquitination” (Chemical Science, 2025).
The list shows a part of the results.

Chains of the proteins cited; added tags and fusions are not shown. Lines headed by an entry give the natural chain unless they say otherwise; changes in a name come on top.
UniProt Q9HAD4: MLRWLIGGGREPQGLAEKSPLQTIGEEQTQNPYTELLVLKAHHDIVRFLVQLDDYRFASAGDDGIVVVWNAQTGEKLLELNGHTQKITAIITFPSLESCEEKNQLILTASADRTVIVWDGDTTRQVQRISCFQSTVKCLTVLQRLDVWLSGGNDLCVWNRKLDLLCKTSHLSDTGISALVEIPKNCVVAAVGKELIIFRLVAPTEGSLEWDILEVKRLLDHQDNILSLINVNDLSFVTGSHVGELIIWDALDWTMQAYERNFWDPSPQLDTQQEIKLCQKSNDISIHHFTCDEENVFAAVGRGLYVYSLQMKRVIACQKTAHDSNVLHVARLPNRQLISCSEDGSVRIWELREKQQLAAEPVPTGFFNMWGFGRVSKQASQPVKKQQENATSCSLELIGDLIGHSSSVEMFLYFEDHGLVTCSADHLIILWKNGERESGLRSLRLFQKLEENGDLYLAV
UniProt O75717: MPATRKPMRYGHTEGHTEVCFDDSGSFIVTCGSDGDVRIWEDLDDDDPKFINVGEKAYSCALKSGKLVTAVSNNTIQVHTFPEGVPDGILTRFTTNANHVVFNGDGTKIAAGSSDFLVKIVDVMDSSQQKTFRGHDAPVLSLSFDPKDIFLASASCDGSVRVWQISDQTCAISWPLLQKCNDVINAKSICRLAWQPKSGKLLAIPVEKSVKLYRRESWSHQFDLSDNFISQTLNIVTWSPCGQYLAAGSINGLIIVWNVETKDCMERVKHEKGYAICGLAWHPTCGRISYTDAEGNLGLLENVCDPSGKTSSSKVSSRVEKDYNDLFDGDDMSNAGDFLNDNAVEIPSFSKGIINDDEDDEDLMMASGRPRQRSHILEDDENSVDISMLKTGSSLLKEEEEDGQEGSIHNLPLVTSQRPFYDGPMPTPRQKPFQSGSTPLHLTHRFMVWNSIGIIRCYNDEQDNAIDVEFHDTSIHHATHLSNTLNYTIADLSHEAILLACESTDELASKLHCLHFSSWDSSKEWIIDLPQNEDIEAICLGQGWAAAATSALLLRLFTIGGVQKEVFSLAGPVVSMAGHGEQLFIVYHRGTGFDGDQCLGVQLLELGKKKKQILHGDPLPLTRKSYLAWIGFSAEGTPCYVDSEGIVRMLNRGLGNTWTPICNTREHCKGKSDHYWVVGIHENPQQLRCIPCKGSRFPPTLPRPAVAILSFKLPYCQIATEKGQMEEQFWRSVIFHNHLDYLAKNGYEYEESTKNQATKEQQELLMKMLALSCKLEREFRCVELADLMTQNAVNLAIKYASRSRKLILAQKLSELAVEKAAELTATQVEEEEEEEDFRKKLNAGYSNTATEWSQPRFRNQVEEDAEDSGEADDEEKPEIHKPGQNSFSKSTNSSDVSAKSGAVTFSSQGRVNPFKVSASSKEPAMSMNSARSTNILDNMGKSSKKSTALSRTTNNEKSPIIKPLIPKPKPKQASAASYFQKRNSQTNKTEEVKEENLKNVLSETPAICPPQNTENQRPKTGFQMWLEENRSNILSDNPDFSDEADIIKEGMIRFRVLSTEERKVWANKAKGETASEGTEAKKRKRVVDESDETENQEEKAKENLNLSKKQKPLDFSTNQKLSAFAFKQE
UniProt Q8IWB7: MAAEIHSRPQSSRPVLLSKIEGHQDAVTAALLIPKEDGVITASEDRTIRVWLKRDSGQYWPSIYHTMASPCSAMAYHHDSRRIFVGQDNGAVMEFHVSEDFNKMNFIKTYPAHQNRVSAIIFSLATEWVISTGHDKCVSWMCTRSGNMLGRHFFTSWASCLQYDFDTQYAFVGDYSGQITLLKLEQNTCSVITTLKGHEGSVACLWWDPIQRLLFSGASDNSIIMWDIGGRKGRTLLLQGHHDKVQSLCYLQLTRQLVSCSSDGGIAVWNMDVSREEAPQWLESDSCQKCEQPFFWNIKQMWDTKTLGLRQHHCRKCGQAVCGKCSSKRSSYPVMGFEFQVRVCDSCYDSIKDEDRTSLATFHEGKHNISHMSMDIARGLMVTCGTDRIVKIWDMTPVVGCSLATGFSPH
UniProt Q01831: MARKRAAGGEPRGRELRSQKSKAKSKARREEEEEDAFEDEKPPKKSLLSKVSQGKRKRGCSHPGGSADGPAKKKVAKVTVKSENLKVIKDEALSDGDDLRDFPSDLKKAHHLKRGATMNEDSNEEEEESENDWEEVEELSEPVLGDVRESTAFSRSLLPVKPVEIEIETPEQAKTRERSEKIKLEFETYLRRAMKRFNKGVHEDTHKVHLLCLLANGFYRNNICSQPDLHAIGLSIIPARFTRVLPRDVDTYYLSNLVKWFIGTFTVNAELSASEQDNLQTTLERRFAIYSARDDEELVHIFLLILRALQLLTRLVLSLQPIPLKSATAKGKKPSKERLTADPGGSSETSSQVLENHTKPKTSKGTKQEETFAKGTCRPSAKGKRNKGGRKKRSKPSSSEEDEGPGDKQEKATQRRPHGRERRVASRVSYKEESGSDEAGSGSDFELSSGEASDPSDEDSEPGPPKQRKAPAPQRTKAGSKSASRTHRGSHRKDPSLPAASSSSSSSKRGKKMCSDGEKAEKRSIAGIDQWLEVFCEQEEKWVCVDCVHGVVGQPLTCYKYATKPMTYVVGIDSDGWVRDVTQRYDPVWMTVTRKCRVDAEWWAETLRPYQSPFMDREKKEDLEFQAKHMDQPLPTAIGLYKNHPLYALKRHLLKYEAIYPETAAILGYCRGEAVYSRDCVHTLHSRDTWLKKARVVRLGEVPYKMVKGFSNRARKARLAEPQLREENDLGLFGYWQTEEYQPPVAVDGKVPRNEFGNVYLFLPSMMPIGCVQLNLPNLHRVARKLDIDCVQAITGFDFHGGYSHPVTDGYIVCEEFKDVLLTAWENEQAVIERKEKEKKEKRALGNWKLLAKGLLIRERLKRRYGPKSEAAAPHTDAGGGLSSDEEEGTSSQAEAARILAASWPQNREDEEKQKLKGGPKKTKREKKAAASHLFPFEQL
UniProt Q96MX6, whole entry, looked up: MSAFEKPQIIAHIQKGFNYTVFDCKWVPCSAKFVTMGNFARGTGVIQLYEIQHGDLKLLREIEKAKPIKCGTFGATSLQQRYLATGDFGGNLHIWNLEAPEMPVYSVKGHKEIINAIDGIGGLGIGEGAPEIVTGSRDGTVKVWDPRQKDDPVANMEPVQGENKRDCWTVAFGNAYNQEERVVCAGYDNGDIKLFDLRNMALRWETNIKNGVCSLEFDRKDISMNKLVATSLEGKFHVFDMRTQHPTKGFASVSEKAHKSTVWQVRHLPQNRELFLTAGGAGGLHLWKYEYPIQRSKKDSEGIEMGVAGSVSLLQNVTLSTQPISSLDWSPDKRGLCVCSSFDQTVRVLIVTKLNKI
UniProt Q9UNX4: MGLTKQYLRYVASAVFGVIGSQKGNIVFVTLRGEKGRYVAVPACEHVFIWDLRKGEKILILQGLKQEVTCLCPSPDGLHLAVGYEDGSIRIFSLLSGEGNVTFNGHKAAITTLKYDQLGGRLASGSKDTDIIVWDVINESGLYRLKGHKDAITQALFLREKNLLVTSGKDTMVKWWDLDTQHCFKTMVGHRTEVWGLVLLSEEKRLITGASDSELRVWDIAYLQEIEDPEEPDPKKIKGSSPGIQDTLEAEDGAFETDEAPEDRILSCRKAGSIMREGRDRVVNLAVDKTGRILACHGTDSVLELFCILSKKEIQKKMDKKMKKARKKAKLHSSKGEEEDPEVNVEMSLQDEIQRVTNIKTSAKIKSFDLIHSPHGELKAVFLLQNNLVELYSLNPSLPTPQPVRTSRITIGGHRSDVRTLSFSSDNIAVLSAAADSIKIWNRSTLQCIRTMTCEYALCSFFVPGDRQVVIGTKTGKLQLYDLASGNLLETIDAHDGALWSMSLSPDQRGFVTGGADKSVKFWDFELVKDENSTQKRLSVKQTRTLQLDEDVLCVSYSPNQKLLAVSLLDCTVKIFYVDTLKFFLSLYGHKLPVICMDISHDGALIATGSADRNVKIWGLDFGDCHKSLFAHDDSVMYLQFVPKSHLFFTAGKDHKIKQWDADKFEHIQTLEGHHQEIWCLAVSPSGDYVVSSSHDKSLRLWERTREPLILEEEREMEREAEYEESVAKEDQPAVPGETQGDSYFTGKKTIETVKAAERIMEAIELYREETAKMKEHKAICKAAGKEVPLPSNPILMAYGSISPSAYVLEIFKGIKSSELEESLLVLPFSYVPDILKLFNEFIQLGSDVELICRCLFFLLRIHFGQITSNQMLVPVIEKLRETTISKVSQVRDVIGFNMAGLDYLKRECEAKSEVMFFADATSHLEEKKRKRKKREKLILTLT
UniProt O94967: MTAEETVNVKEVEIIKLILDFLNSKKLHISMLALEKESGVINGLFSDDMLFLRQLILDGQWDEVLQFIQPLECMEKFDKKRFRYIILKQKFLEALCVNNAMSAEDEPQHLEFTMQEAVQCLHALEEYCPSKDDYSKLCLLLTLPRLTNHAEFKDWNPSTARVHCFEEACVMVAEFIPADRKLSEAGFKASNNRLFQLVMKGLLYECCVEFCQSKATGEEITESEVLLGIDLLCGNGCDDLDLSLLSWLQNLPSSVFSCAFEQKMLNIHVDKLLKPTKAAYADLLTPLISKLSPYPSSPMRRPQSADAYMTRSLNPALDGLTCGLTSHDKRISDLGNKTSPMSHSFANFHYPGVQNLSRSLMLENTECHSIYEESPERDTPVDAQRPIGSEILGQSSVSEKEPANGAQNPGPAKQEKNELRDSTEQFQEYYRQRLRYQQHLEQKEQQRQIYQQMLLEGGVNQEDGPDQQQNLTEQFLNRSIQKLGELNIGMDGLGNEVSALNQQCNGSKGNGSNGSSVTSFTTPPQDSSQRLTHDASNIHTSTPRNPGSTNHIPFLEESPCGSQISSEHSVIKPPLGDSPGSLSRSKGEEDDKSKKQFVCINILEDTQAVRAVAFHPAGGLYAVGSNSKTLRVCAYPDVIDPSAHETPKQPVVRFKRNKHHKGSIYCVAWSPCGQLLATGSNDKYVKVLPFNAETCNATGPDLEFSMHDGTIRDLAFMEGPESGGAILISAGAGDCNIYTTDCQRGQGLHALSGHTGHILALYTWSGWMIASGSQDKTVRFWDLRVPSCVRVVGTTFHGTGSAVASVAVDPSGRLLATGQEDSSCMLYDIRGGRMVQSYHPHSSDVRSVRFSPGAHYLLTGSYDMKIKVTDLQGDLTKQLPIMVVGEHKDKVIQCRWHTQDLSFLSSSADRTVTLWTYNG
UniProt Q9NQW7: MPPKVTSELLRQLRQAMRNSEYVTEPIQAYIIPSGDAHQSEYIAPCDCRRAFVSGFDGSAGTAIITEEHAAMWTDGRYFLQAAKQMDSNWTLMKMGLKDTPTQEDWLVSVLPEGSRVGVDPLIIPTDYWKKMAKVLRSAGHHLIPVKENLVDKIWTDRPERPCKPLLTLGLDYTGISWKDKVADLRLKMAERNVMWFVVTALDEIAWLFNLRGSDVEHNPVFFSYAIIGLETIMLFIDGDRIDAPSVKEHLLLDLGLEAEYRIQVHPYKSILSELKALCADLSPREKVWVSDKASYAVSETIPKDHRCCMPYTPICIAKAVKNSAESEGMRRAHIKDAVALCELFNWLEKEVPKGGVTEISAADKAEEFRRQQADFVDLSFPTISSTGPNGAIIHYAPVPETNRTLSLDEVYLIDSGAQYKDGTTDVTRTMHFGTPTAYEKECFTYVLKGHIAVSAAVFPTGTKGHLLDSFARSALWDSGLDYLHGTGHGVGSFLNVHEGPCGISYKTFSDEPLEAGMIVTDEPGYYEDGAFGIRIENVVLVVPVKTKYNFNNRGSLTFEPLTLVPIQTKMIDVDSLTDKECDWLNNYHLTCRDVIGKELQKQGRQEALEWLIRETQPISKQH
UniProt A4D1P6: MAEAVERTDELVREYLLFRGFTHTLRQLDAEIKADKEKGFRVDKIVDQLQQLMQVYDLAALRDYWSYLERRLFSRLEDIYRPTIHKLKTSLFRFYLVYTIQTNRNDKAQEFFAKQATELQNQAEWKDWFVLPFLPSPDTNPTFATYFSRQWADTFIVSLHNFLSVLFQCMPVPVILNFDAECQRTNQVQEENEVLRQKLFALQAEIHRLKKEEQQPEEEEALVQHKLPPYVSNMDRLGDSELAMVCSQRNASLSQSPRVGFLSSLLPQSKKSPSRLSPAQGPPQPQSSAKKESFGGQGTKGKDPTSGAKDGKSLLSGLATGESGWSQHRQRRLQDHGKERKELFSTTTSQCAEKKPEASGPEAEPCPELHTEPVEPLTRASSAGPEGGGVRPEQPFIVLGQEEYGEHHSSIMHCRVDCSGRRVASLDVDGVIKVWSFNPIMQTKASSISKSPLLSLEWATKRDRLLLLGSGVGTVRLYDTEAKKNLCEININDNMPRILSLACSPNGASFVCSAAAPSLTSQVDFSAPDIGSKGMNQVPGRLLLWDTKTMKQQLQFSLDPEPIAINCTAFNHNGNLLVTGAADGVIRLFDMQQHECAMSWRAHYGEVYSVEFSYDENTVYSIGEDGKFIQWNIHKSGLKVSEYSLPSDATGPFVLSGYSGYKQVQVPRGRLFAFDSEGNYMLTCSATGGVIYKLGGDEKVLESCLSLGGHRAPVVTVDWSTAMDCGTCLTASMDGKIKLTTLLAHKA

Compound: CC1Cc2ccccc2N1C(=O)C1CCCN(C1)C(=O)CCl (mixture of isomers) [TRIM25 ligand 11 (diastereomer mixture)]
Assay: probe-labelled cysteine peptide fold change vs DMSO (competition) (log2 fold change); higher = less target engagement (more negative = stronger competition)
Details: THP-1, incubation time: 4 h
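Further: competitive chemoproteomic profiling in live THP-1 cells with an iodoacetamide desthiobiotin (IA-DTB) probe, comparing probe-labelled peptide intensities in compound-treated cells against DMSO-treated controls.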

Row | Target | probe-labelled cysteine peptide fold change (10 µM) | probe-labelled cysteine peptide fold change (50 µM)
1 | WARS_P23381_309_DRTDIQCLIPCAIDQDPYFR (UniProt P23381) | 0.0843 | 0.00831
2 | WDR41_Q9HAD4_186_NCVVAAVGK (UniProt Q9HAD4) | 0.149 | 0.0422
3 | WDR75_Q8IWA0_217_NNFTCVACHPTEDCIASGHMDGK (UniProt Q8IWA0) | 0.0121 | -0.205
4 | WDHD1_O75717_170_VWQISDQTCAISWPLLQK (UniProt O75717) | -0.129 | 0.0219
5 | WDCP_Q9H6R7_472_LIESLSPDFCHQNK (UniProt Q9H6R7) | -0.129 | -0.149
6 | WDR6_Q9NNW5_1096_LGHGEPTFMNSTVFHVPDVADMDCWPVSPEFGHR (UniProt Q9NNW5) | 0.344 | -0.0636
7 | WDR44_Q5JSH3_701_LITAANFCQNGK (UniProt Q5JSH3) | 0.117 | 0.132
8 | WT1_P19544_385_HTGVKPFQCK (UniProt P19544) | -0.144 | -0.103
9 | WDFY1_Q8IWB7_317_KCGQAVCGK (UniProt Q8IWB7) | -0.145 | -0.188
10 | XPC_Q01831_514_MCSDGEK (UniProt Q01831) | -0.0167 | -0.0661
11 | XPC_Q01831_680_DCVHTLHSR (UniProt Q01831) | 0.0616 | 0.195
12 | WDR92_Q96MX6_213_NGVCSLEFDRK (UniProt Q96MX6) | 0.00871 | 0.0922
13 | WDR46_O15213_172_ICQADIVEAVDIASAAK (UniProt O15213) | 0.178 | 0.132
14 | WDR3_Q9UNX4_183_WWDLDTQHCFK (UniProt Q9UNX4) | 0.0931 | 0.173
15 | WDR41_Q9HAD4_291_SNDISIHHFTCDEENVFAAVGR (UniProt Q9HAD4) | 0.286 | 0.149
16 | WDR47_O94967_322_SLNPALDGLTCGLTSHDK (UniProt O94967) | 0.104 | -0.116
17 | XPNPEP1_Q9NQW7_308_CCMPYTPICIAK (UniProt Q9NQW7) | -0.0512 | -0.0661
18 | WDR43_Q15061_307_DGQVHLFEHILNGYCK (UniProt Q15061) | 0.152 | 0.108
19 | WDR18_Q9BV38_384_LGLHQQGSEPSYLDRTEQLQAVLCSTMEK (UniProt Q9BV38) | -0.0296 | -0.059
20 | WDR36_Q8NI36_866_SLSPDCGGSIEVMQSFLK (UniProt Q8NI36) | 0.24 | 0.233
21 | WDFY4_Q6ZS81_1665_FRDGLCAGSWVER (UniProt Q6ZS81) | -0.154 | -0.0201
22 | WWP2_O00308_506_FLCHSNALPSHVK (UniProt O00308) | 0.0753 | 0.167
23 | WDR3_Q9UNX4_448_STLQCIR (UniProt Q9UNX4) | 0.0627 | 0.335
24 | WIPI2_Q9Y4P8_334_NICSLATIQK (UniProt Q9Y4P8) | 0.0181 | -0.0227
25 | WDR12_Q9GZL7_185_ALHCCR (UniProt Q9GZL7) | 0.0665 | 0.103
26 | WDR47_O94967_367_SLMLENTECHSIYEESPER (UniProt O94967) | 0.181 | 0.126

Looked up above:
Value of WDR47_O94967_322_SLNPALDGLTCGLTSHDK (UniProt O94967) under probe-labelled cysteine peptide fold change (50 µM): -0.116
Value of WWP2_O00308_506_FLCHSNALPSHVK (UniProt O00308) under probe-labelled cysteine peptide fold change (50 µM): 0.167
Value of WDFY4_Q6ZS81_1665_FRDGLCAGSWVER (UniProt Q6ZS81) under probe-labelled cysteine peptide fold change (10 µM): -0.154

Additional results.

Row | Target | probe-labelled cysteine peptide fold change (10 µM) | probe-labelled cysteine peptide fold change (50 µM)
27 | XIAP_P98170_465+471_NIAIVFVPCGHLVTCK (UniProt P98170) | -0.0472 | 0.0186
28 | WDR81_Q562E7_765_VQPAVPLQCLLHR (UniProt Q562E7) | -0.0215 | -0.053
29 | WDFY1_Q8IWB7_344_VCDSCYDSIKDEDR (UniProt Q8IWB7) | -0.0473 | 0.016
30 | WDR26_Q9H7D7_238_CELTPLK (UniProt Q9H7D7) | -0.0356 | -0.0732
31 | WASHC4_Q2M389_659_HLESYEILLDCYDK (UniProt Q2M389) | 0.138 | 0.28
32 | WDR66_Q8TBY9_567_SNYPPDCTLK (UniProt Q8TBY9) | 0.267 | -0.194
33 | WDR43_Q15061_315_KPLTSNCTIQIATPGK (UniProt Q15061) | -0.0227 | -0.0744
34 | WDFY4_Q6ZS81_88_AWEHSVGIICFPSLQR (UniProt Q6ZS81) | -0.125 | 0.0965
35 | WDR91_A4D1P6_366_KPEASGPEAEPCPELHTEPVEPLTR (UniProt A4D1P6) | -0.0977 | -0.192
36 | WDR41_Q9HAD4_340_QLISCSEDGSVR (UniProt Q9HAD4) | -0.0419 | 0.061
37 | WDR4_P57081_227_QLHCCHLASLQELVDPQAPQK (UniProt P57081) | 0.0145 | 0.203
38 | WDR36_Q8NI36_470_LSCSTWNYQK (UniProt Q8NI36) | 0.0514 | -0.00465
39 | WNK1_Q9H4A3_1135_VVECQLETHNR (UniProt Q9H4A3) | 0.0982 | 0.156
40 | WDR33_Q9C0J8_996_GGQDCR (UniProt Q9C0J8) | 0.0273 | 0.000158
41 | WDR41_Q9HAD4_131_ISCFQSTVK (UniProt Q9HAD4) | 0.229 | 0.306
42 | WASHC5_Q12768_11_MLDFLAENNLCGQAILR (UniProt Q12768) | 0.105 | 0.038
43 | WDR91_A4D1P6_596_LFDMQQHECAMSWR (UniProt A4D1P6) | 0.0831 | -0.144
44 | WDR6_Q9NNW5_254_VQNIGHCFGHSAR (UniProt Q9NNW5) | 0.181 | 0.0389
45 | WDR1_O75083_225_VCALGGSK (UniProt O75083) | 0.0155 | 0.0103
46 | WDFY4_Q6ZS81_835_QWPDLEERMDEGDAAIMHPGVVCIMVR (UniProt Q6ZS81) | -0.279 | -0.333
47 | WDR11_Q9BZH6_1071_LAEGVQLLCLIDK (UniProt Q9BZH6) | 0.0963 | 0.0498
48 | WDR48_Q8TAF3_366_GGASIIQCHILNDKR (UniProt Q8TAF3) | -0.0025 | 0.0541
49 | WDR36_Q8NI36_463_ESDWDGIIACHQGK (UniProt Q8NI36) | 0.0291 | -0.0647
50 | WDR81_Q562E7_464_SVLCGHVR (UniProt Q562E7) | 0.0942 | 0.0569
51 | WDR48_Q8TAF3_225_DGTQCLSGSSDGTIR (UniProt Q8TAF3) | -0.0488 | -0.132
52 | WDR76_Q9H967_562_FQAMWDPKQEDCVIVGSMAHPR (UniProt Q9H967) | -0.206 | -0.144

Row | Target | probe-labelled cysteine peptide fold change (10 µM) | probe-labelled cysteine peptide fold change (50 µM)
53 | WRNIP1_Q96S55_39_CLLLHPAGHAEPAAGSHR (UniProt Q96S55) | -0.0546 | 0.231
54 | WDR91_A4D1P6_246_LGDSELAMVCSQR (UniProt A4D1P6) | -0.0616 | -0.273
55 | WDFY1_Q8IWB7_204_GHEGSVACLWWDPIQR (UniProt Q8IWB7) | -0.0298 | 0.0831
56 | WDR26_Q9H7D7_577_KYQGVTQGFYTIHSCFGGHNEDFIASGSEDHK (UniProt Q9H7D7) | 0.236 | 0.015
57 | WDFY4_Q6ZS81_2352_EAEGEPDEVGVDCTQLTFFPALHESLHSEDFLELCR (UniProt Q6ZS81) | 0.294 | -0.00897
58 | WEE1_P30291_263_TYWNDSCGEDMEASDYELEDETRPAKR (UniProt P30291) | -0.153 | -0.442
59 | WDR61_Q9GZS3_303_IVSVGDDQEIHIYDCPI (UniProt Q9GZS3) | -0.0157 | -0.221
60 | WASHC3_Q9Y3C0_48_FSTVCEEK (UniProt Q9Y3C0) | 0.0666 | 0.0936
61 | WDFY4_Q6ZS81_1763_HHQEEVLQAGLCTEGALLLLEMLK (UniProt Q6ZS81) | 0.571 | 0.181
62 | WDR24_Q96S15_189_VCFHPTEAHVLLSGSQDGFMK (UniProt Q96S15) | 0.0656 | -0.217
63 | WDR12_Q9GZL7_184+185_ALHCCR (UniProt Q9GZL7) | 0.152 | 0.0914
64 | WDFY1_Q8IWB7_317_CGQAVCGK (UniProt Q8IWB7) | -0.0639 | -0.00879
65 | WDHD1_O75717_1008_NVLSETPAICPPQNTENQRPK (UniProt O75717) | 0.0998 | 0.0363
66 | WDR92_Q96MX6_339_GLCVCSSFDQTVR (UniProt Q96MX6) | 0.0751 | 0.138
67 | WDR70_Q9NW82_430_PLFSASGLPTMFPMTDCCFSPDDK (UniProt Q9NW82) | -0.308 | 0.0887
68 | WASHC5_Q12768_521_TVQLIQALEEVQEFHQLESNLQVCQFLADTRK (UniProt Q12768) | 0.205 | 0.147
69 | WDR37_Q9Y2I8_329+330_TANLYDVETSELVHSLTGHDQELTHCCTHPTQR (UniProt Q9Y2I8) | 0.047 | -0.0726
70 | WWP2_O00308_88_VWSCHTLR (UniProt O00308) | 0.164 | 0.2
71 | WDR81_Q562E7_1226_ILLDTACK (UniProt Q562E7) | -0.0576 | -0.0596
72 | WDR55_Q9H6Y2_268_AESIDCMVPVTESLLCTGSTDGVIR (UniProt Q9H6Y2) | 0.00997 | 0.341
73 | WDR7_Q9Y4E6-2_959_QGWSQLAAMHCVMLPDLLGLDK (UniProt Q9Y4E6) | -0.0424 | -0.0849
74 | XPNPEP1_Q9NQW7_309_CCMPYTPICIAK (UniProt Q9NQW7) | -0.193 | -0.0883
75 | WDR82_Q6UXN9_141_SPNCQGLMHLQGK (UniProt Q6UXN9) | 0.189 | 0.1
76 | WDR6_Q9NNW5_26_ATSELILLPVTGLECVGDR (UniProt Q9NNW5) | -0.04 | 0.0348
77 | WNK4_Q96J92_412_EIIEGCIR (UniProt Q96J92) | -0.0738 | 0.113
78 | WDR26_Q9H7D7_259_IHVLSGYLMCSHAEDLR (UniProt Q9H7D7) | 0.0138 | -0.0331
